Counter-ions that a name gives are not always drawn. Some of the results follow. Repeats are few or missing, and single values can be far off.
How the values were obtained:
[1] = tested on: Saos-2; assay: cell viability (CCK-8) relative to DMSO control (% of control); higher = less cytotoxic; conditions: 10 µM; 48 h
[2] = tested on: U2OS; assay: as above; conditions: 10 µM; 48 h

| Compound | cell viability [1] | cell viability [2] |
| --- | --- | --- |
| C[N+]1(C)CCCC(OC(=O)C(O)(c2ccccc2)c2ccccc2)C1 (configuration not stated) [Mepenzolate Bromide] | 107 | 101 |
| CC(C)C[C@H]1C(=O)N2CCC[C@H]2[C@]2(O)O[C@](NC(=O)[C@@H]3C=C4c5cccc6[nH]c(Br)c(c56)C[C@H]4N(C)C3)(C(C)C)C(=O)N12 [Bromocriptine Mesylate] | 64.2 | 109 |
| COc1cc2c(c(OC)c1OC)-c1ccc(OC)c(=O)cc1[C@@H](NC(C)=O)CC2 [Colchicine] | 39.4 | 52 |
| Nc1ccncc1 [4-Aminopyridine] | 109 | 90.5 |
| COc1cccc(C2(O)CCCCC2CN(C)C)c1 (configuration not stated) [Tramadol·HCl] | 66 | 101 |
| O=P1(N(CCCl)CCCl)NCCCO1 (configuration not stated) [Cyclophosphamide . monohydrate] | 67.8 | 101 |
| CC1(C)C(C=C(Cl)Cl)C1C(=O)OCc1cccc(Oc2ccccc2)c1 (configuration not stated) [Permethrin] | 111 | 103 |
| O=[N+]([O-])O[C@H]1CO[C@H]2[C@@H]1OC[C@H]2O[N+](=O)[O-] [Isosorbide . Dinitrate] | 106 | 95.1 |
| NCC1(CC(=O)O)CCCCC1 [Gabapentin] | 58.9 | 112 |
| Oc1ccc2c3c1O[C@H]1[C@@H](O)CC[C@@]4(O)[C@@H](C2)N(CC2CCC2)CC[C@]314 [Nalbuphine hydrochloride hydrate] | 63.1 | 106 |
| O=C(O[C@H]1C[C@H]2CC[C@@H](C1)[N+]21CCCC1)C(O)(c1ccccc1)c1ccccc1 [Trospium Chloride] | 137 | 76.2 |
| C[N+]1(C)[C@@H]2C[C@@H](OC(=O)[C@H](CO)c3ccccc3)C[C@H]1[C@@H]1O[C@@H]12 [(-)-Scopolamine Methyl Bromide] | 99.6 | 102 |
| CN1CCN(C(=O)O[C@H]2c3nccnc3C(=O)N2c2ccc(Cl)cn2)CC1 [Eszopiclone] | 98.7 | 53.4 |
| N.N.[Cl][Pt][Cl] [Cisplatin] | 93.4 | 94.5 |
| CC(NC(C)(C)C)C(=O)c1cccc(Cl)c1 (configuration not stated) [Bupropion] | 121 | 104 |
| COc1ccc2c(c1)[C@]13CCCC[C@@H]1[C@H](C2)N(C)CC3 [Dextromethorphan] | 71.8 | 102 |

| Compound | cell viability [1] | cell viability [2] |
| --- | --- | --- |
| CC(=O)O[C@H]1C[C@@H]2CC[C@@H]3[C@H](CC[C@@]4(C)[C@H]3C[C@H]([N+]3(C)CCCCC3)[C@@H]4OC(C)=O)[C@@]2(C)C[C@@H]1[N+]1(C)CCCCC1 [Pancuronium . dibromide] | 62.2 | 105 |
| CC[C@@H](CO)NC(=O)[C@@H]1C=C2c3cccc4[nH]cc(c34)C[C@H]2N(C)C1 [Methylergonovine Maleate] | 97.6 | 101 |
| CCN(C(C)=O)c1cccc(-c2ccnc3c(C#N)cnn23)c1 [Zaleplon] | 138 | 85 |
| N[C@@H]1C[C@H]1c1ccccc1.N[C@H]1C[C@@H]1c1ccccc1 [Tranylcypromine Hemisulfate] | 56.9 | 107 |
| O=c1[nH]c2ccccc2n1C1CCN(CCCC(c2ccc(F)cc2)c2ccc(F)cc2)CC1 [Pimozide] | 55.9 | 112 |
| CC(C)N(CCC(C(N)=O)(c1ccccc1)c1ccccn1)C(C)C (configuration not stated) [Disopyramide] | 113 | 108 |
| CC[C@@H](C(N)=O)N1CCCC1=O [Levetiracetam] | 64.3 | 100 |
| CN1[C@@H]2C[C@@H](OC(=O)[C@H](CO)c3ccccc3)C[C@H]1[C@@H]1O[C@@H]12 [Scopolamine hydrobromide] | 68.4 | 113 |
| N[C@@H](Cc1ccc(N(CCCl)CCCl)cc1)C(=O)O [Melphalan] | 59.7 | 87.6 |
| Cn1c(CCCC(=O)O)nc2cc(N(CCCl)CCCl)ccc21 [Bendamustine hydrochloride] | 109 | 73.4 |
| CCN(C)C(=O)Oc1cccc([C@H](C)N(C)C)c1 [Rivastigmine Tartrate] | 65.7 | 87.7 |
| NCCCNCCSP(=O)(O)O [Amifostine] | 64.1 | 118 |
| CC(O)(CS(=O)(=O)c1ccc(F)cc1)C(=O)Nc1ccc(C#N)c(C(F)(F)F)c1 (configuration not stated) [Bicalutamide] | 67 | 101 |
| C#CCN(C)[C@H](C)Cc1ccccc1 [Selegiline·HCl] | 110 | 92.9 |
| COc1cc([C@@H]2c3cc4c(cc3[C@H](O)[C@H]3COC(=O)[C@H]23)OCO4)cc(OC)c1OC [Podophyllotoxin] | 44.6 | 64.2 |

Of the compounds above, these contain four or more nitrogen atoms.

| Compound | cell viability [1] | cell viability [2] |
| --- | --- | --- |
| CC(C)C[C@H]1C(=O)N2CCC[C@H]2[C@]2(O)O[C@](NC(=O)[C@@H]3C=C4c5cccc6[nH]c(Br)c(c56)C[C@H]4N(C)C3)(C(C)C)C(=O)N12 [Bromocriptine Mesylate] | 64.2 | 109 |
| CN1CCN(C(=O)O[C@H]2c3nccnc3C(=O)N2c2ccc(Cl)cn2)CC1 [Eszopiclone] | 98.7 | 53.4 |
| CCN(C(C)=O)c1cccc(-c2ccnc3c(C#N)cnn23)c1 [Zaleplon] | 138 | 85 |
